Measurements taken from patent US20180355060A1.
These are yes or no findings as the source states them, for the method shown. Some binding calls cover weakened binding; strength is not graded here.

Chains of the proteins cited; added tags and fusions are not shown. Lines headed by an entry give the natural chain unless they say otherwise; changes in a name come on top.
UniProt P21980: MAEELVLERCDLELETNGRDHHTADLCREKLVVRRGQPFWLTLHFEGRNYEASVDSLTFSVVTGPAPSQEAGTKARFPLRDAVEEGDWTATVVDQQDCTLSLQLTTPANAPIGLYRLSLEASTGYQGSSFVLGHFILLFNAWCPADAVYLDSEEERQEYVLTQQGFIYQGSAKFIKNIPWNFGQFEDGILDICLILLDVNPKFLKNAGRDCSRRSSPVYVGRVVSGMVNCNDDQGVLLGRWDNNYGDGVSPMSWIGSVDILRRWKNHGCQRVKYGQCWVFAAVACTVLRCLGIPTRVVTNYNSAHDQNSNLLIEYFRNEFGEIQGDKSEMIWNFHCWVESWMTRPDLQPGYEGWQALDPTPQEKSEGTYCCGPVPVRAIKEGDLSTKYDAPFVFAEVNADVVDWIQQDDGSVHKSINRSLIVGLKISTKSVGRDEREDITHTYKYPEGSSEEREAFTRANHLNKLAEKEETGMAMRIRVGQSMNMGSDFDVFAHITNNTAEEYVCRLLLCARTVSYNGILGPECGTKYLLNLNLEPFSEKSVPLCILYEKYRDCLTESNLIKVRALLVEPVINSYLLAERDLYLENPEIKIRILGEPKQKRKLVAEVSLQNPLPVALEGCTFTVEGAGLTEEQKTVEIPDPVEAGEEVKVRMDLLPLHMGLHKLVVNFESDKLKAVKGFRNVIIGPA

How the values were obtained:
[1] = biological target: cynomolgus monkey TG2 (cynomolgus monkey); assay: SPR (Biacore)
[2] = biological target: human transglutaminase type 2 (TG2) (human) (UniProt P21980); assay: SPR (Biacore)
[3] = biological target: human transglutaminase type 2 (TG2) (human) (UniProt P21980); assay: ELISA on plates coated with human TG2
[4] = biological target: cynomolgus monkey TG2 (cynomolgus monkey); assay: ELISA on plates coated with cynomolgus monkey TG2
[5] = biological target: cynomolgus monkey TG2 (cynomolgus monkey); assay: SPR (Biacore), figure legend
[6] = biological target: human transglutaminase type 2 (TG2) (human) (UniProt P21980); assay: SPR (Biacore), figure legend

binding [1] | binding [2] | binding [3] | binding [4] | binding [5] | binding [6] | Binder
binds | binds | binds | binds | – | – | hBB001AA humanised BB7 antibody (BB7 RHA with BB7 RKA) (antibody, V domains shown) VH: EVQLLESGGGLVQPGGSLRLSCAASGIIFSSSAMSWVRQAPGKGLEWVATISSGGRSTYYPDSVKGRFTVSRDSSKNTLYLQMNSLRAEDTAVYYCAKLISPYWGQGTLVTVSS VL: DIKMTQSPSSLSASVGDRVTITCKASQDINSYLTWFQQKPGKAPKTLIYLTNRLMDGVPSRFSGSGSGQEFLLTISSLQPEDFATYYCLQYVDFPYTFGQGTKVEIK
binds | – | – | – | – | – | hAB005 (hAB001AJ) humanised AB1 antibody, heavy chain version RHA with light chain version RKJ (antibody, V domains shown) VH: EVQLLESGGGLVQPGGSLRLSCAASGFTFSSSAMSWVRQAPGKGLEWVSTISVGGGKTYYPDSVKGRFTISRDNSKNTLYLQMNSLRAEDTAVYYCAKLISLYWGQGTLVTVSS VL: DIQMTQSPSSLSASVGDRVTITCKASQDINSYLTWFQQKPGKAPKSLIYRTNRLFDGVPSRFSGSGSGTDFFLTISSLQPEDFATYYCLQYDDFPYTFGQGTKVEIK
binds | binds | binds | binds | – | – | hBB001BB humanised BB7 antibody (BB7 RHB with BB7 RKB) (antibody, V domains shown) VH: EVQLLESGGGLVQPGGSLRLSCAASGFTFSSSAMSWVRQAPGKGLEWVSTISSGGRSTYYPDSVKGRFTISRDNSKNTLYLQMNSLRAEDTAVYYCAKLISPYWGQGTLVTVSS VL: DIQMTQSPSSLSASVGDRVTITCKASQDINSYLTWFQQKPGKAPKSLIYLTNRLMDGVPSRFSGSGSGTDFFLTISSLQPEDFATYYCLQYVDFPYTFGQGTKVEIK
binds | – | – | binds | binds | – | hAB004 (hAB001AE) humanised AB1 antibody, heavy chain version RHA with light chain version RKE (antibody, V domains shown) VH: EVQLLESGGGLVQPGGSLRLSCAASGFTFSSSAMSWVRQAPGKGLEWVSTISVGGGKTYYPDSVKGRFTISRDNSKNTLYLQMNSLRAEDTAVYYCAKLISLYWGQGTLVTVSS VL: EIVLTQSPSSLSASVGDRVTITCKASQDINSYLTWYQQKPGKAPKLLIYRTNRLFDGVPSRFSGSGSGTDFFFTISSLQPEDFGTYYCLQYDDFPYTFGGGTKLEIK
binds | – | – | binds | – | – | cBB001 chimeric anti-TG2 antibody (murine BB7 variable regions, human IgG1 and human kappa) (antibody, V domains shown) VH: AVQLVESGGGLVKPGGSLKLSCAASGIIFSSSAMSWVRQTPEKRLEWVATISSGGRSTYYPDSVKGRFTVSRDSAKNTLYLQMDSLRSEDTAIYYCAKLISPYWGQGTTLTVSS VL: AIKMTQSPSSMYASLGERVIITCKASQDINSYLTWFQQKPGKSPKTLIYLTNRLMDGVPSRFSGSGSGQEFLLTISGLEHEDMGIYYCLQYVDFPYTFGGGTKLEIK
binds | – | – | binds | – | – | cDC001 chimeric anti-TG2 antibody (murine DC1 variable regions, human IgG1 and human kappa) (antibody, V domains shown) VH: EVQLVESGGGLVKPGGSLKLSCAASGFTLSTHAMSWVRQTPEKRLEWVATISSGGRSTYYPDSVKGRFTISRDNVKNTLYLQLSSLRSEDTAVYFCARLISTYWGQGTTLTVSS VL: DITMTQSPSSIYASLGERVTITCKASQDINSYLTWFQQKPGKSPKILIYLVNRLVDGVPSRFSGSGSGQDYALTISSLEYEDMGIYYCLQYDDFPYTFGGGTKLEIK
binds | binds | binds | binds | – | binds | cAB003 chimeric anti-TG2 antibody (murine AB1 variable regions, human IgG1 and human kappa) (antibody, V domains shown) VH: EVQLVESGGGLVKPGGSLKLSCAASGFTLSSSAMSWVRQTPDRRLEWVATISVGGGKTYYPDSVKGRFTISRDNAKNTLYLQMNSLRSEDTAMYYCAKLISLYWGQGTTLTVSS VL: DIKMTQSPSSMYASLGERVTITCKASQDINSYLTWFQQKPGKSPKTLIYRTNRLFDGVPSRFSGSGSGQDFFLTISSLEYEDMGIYYCLQYDDFPYTFGGGTKLEIK
